Results: patent US20240156836A1, “METHODS OF TREATING TE[…]” (priority 2018, published 2024)

Assay: Influence of blood collection tubes: ex vivo TU to T conversion and serum / NaF-EDTA plasma T conversion factor

C[C@]12CC[C@H]3[C@@H](CCC4=CC(=O)CC[C@@]43C)[C@@H]1CC[C@@H]2O [T, Testosterone]
expected equivalent T concentration in NaF-EDTA plasma as percent of the serum value: 82.4% | matrix effect associated with NaF-EDTA plasma compared to serum: 0.858
